From PMC8752655

What was measured:
[1] = target: T1, Rice G protein beta subunit 1 (rice) (UniProt Q40687); assay: yeast three-hybrid; yeast three-hybrid; GS3.1 and RGB1 with GS3.2 as third protein
T1 sequence: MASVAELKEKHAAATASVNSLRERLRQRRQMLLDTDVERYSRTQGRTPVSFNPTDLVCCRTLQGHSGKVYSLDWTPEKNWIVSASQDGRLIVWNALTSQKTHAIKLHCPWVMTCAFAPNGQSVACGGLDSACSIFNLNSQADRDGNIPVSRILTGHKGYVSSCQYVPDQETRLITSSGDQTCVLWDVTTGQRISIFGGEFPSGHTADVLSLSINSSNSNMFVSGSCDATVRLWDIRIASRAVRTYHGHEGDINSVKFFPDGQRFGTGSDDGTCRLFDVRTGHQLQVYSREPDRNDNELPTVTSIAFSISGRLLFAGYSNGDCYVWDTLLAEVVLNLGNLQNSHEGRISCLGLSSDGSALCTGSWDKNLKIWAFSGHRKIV

[2] = target: T1, Rice G protein beta subunit 1 (rice); assay: two-hybrid; yeast two-hybrid; strength judged by growth in the dropout medium

## GS3.1 (rice)
[1]
  binding: binds
[2]
  binding: binds

Results are given in words; binding and its absence hold for the method and conditions named. Binding can be weak; no strength is given.
